Experimental data published in publication PMC11715975.
These are yes or no findings as the source states them, for the method shown. Binding seen in cells or lysates may run through a third protein. Some binding calls cover weakened binding; strength is not graded here.

By UniProt entry, the sequences of proteins in these tests, tags left out.
UniProt Q15014: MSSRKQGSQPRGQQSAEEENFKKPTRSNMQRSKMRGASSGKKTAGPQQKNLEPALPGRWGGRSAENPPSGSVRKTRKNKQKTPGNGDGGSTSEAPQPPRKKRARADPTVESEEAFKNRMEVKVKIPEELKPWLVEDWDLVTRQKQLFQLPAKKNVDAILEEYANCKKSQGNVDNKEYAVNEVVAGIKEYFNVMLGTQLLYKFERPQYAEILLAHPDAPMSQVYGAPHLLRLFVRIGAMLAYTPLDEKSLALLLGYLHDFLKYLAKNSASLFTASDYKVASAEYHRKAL
UniProt Q92993: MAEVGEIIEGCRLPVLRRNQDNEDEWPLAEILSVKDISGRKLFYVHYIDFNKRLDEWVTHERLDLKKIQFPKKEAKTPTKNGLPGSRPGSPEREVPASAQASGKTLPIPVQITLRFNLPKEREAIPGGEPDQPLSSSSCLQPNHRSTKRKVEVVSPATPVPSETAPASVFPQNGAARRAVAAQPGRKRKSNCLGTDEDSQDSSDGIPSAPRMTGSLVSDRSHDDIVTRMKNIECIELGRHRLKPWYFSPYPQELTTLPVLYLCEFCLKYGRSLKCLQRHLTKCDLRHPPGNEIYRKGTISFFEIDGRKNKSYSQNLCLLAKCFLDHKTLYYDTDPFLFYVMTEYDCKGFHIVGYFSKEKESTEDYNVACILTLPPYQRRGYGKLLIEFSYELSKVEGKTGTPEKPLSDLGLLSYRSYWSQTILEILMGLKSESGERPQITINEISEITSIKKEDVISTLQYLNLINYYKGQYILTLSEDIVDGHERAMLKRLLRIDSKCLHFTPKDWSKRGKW
UniProt Q9Y4A5: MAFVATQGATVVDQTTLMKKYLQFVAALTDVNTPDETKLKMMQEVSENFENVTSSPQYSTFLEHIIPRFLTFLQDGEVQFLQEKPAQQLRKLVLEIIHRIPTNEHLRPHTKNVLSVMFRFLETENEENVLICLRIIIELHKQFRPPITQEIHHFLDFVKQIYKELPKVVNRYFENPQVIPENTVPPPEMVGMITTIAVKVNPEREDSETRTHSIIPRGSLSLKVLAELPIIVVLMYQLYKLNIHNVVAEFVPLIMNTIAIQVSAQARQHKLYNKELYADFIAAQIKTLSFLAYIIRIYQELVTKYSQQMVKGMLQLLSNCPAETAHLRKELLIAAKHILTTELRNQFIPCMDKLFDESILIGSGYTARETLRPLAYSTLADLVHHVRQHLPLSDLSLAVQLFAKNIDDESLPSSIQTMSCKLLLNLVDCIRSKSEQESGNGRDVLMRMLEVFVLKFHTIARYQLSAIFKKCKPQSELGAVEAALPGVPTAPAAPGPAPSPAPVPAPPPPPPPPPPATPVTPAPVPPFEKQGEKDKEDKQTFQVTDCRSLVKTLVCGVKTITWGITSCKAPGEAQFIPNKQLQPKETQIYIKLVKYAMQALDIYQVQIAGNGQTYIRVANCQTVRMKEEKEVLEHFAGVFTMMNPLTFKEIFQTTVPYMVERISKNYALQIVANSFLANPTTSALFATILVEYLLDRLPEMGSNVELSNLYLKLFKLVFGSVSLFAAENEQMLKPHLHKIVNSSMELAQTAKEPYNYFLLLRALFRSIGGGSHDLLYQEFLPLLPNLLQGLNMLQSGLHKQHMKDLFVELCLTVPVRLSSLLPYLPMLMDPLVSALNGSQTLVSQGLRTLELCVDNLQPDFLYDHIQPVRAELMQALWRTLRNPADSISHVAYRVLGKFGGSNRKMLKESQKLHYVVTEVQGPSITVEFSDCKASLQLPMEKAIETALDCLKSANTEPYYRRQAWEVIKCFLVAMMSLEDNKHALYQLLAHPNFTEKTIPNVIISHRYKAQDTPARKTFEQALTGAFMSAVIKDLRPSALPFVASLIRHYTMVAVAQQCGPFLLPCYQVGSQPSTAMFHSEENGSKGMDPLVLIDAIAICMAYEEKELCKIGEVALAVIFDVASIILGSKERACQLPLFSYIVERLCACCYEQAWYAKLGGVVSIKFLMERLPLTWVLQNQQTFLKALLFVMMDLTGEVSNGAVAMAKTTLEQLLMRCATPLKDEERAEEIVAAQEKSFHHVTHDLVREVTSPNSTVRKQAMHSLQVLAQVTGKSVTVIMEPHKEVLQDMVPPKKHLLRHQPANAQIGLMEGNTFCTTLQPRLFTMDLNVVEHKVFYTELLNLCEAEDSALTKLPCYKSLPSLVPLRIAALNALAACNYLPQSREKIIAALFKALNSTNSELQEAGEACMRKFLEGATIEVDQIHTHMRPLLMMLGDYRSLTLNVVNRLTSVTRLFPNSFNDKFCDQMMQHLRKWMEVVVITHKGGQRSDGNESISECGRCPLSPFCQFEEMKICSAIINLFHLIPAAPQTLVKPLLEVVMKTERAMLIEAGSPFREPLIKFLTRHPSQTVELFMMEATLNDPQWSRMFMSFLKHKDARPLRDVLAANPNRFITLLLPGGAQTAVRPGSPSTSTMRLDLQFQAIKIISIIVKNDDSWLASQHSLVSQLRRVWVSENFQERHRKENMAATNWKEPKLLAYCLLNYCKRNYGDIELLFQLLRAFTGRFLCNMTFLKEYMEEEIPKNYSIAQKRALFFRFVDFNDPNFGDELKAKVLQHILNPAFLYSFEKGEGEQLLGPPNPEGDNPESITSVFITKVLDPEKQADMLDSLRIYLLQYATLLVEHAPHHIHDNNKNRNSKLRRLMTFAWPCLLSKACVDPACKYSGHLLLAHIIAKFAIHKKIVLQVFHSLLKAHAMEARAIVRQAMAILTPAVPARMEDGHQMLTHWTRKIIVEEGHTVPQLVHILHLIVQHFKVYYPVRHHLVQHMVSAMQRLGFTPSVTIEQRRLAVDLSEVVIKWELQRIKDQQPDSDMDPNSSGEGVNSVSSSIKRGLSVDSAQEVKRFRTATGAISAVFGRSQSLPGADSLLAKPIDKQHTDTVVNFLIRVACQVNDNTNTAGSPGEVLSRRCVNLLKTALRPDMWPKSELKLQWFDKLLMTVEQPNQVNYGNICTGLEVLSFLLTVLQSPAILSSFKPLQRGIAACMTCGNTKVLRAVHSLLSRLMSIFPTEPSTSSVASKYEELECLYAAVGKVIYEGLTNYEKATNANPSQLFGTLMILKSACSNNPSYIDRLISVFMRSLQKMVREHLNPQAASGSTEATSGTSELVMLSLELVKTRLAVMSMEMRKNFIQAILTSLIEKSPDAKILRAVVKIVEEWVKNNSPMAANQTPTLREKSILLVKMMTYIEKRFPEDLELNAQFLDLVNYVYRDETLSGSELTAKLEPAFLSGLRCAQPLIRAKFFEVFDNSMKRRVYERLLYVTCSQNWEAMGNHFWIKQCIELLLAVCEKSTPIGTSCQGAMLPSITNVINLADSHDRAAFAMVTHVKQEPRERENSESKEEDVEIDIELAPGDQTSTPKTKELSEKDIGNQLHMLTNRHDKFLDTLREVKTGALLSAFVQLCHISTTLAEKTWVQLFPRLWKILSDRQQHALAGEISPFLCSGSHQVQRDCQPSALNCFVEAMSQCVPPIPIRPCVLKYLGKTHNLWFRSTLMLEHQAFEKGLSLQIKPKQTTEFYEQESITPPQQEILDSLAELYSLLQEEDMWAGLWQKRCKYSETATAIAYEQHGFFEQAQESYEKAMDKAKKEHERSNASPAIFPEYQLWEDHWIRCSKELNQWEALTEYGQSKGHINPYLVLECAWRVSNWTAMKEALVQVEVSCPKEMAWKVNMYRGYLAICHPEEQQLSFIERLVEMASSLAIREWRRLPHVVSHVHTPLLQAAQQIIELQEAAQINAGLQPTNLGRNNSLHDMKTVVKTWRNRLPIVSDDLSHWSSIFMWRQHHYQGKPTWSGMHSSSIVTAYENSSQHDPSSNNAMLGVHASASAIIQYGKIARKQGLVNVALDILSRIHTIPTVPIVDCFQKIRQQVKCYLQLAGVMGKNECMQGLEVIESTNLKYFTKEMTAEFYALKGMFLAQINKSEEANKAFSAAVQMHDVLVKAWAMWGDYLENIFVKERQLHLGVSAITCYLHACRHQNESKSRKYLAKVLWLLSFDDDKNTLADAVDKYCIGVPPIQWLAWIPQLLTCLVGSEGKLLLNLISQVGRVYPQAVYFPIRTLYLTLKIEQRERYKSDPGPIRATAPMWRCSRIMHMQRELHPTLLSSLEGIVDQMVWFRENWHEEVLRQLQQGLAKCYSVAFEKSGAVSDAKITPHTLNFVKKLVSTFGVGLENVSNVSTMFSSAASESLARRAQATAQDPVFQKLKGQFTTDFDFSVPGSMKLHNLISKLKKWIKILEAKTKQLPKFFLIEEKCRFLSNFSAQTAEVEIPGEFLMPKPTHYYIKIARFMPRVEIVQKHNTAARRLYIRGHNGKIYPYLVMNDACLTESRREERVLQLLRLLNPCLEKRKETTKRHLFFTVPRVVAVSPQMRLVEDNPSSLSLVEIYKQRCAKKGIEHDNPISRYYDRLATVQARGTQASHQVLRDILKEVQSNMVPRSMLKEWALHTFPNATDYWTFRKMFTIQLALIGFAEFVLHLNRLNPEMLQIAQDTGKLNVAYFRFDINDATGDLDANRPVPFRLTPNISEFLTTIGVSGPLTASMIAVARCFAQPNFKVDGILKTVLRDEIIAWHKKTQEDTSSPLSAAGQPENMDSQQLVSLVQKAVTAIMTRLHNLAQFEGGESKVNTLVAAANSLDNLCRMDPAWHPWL

Target: Mortality factor 4 like 2 (MORF4L2) (UniProt Q15014)
Experiment: co-IP; cells lysed in pre-cooled NP-40 lysis buffer with PMSF; supernatant incubated overnight at 4 °C with anti-MORF4L2 or IgG, then protein A/G beads for 2 h; washed 3 times; immunoblot; cell line not stated

## lysine acetyltransferase 5 (TIP60/KAT5) (from UniProt Q92993 1-513)
  binding: binds

## transformation/transcription domain-associated protein (TRRAP) (from UniProt Q9Y4A5 1-3859)
  binding: binds
